{
  "source": "PubChem BioAssay AID2685",
  "about": "(National Center for Advancing Translational Sciences (NCATS), 2010)",
  "test": "qHTS Assay for Lipid Storage Modulators in Drosophila S3 Cells;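 on cell number change: cells counted by Cell Tracker Red CMTPX staining in the red channel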",
  "details": "BODIPY lipid droplet fluorescence, 18-24 h; for cell number change: measured here: cell count max response, cells fed with added oleic acid",
  "summary_of_the_method": "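Drosophila S3 cells loaded with oleic acid (400 uM, as added) and compounds at several concentrations; lipid droplets imaged by 488-nm laser-scanning cytometry, 500–530 nm intensity and object ratio to cell channel. Percent activity normalized to 20 uM Triacsin C.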",
  "key": {"[1]": {"details": "measured here: lipid fluorescence (Fed channel) AC50, cells fed with added oleic acid"}, "[2]": {"details": "measured here: cell number channel AC50, cells fed with added oleic acid"}},
  "note": "The other results are listed elsewhere or left out. The main result of the screen is listed elsewhere. These columns were measured beside it and carry no call. The list favours compounds with an active or inconclusive main result. Words in brackets tell the shape of the fitted curve; partial curves, single points and poor fits give uncertain potencies.",
  "data": [
    {"compound": "COc1cc2cc(C(c3nnnn3C(C)(C)C)N3CCC(C)CC3)c(=O)[nH]c2cc1OC", "note": "(stereo unspecified)", "values": [
      {"measurement": "cell number change", "value": 29.6, "unit": "%"}
    ]},
    {"compound": "COC(=O)N/N=C\\c1ccc(OC/C=C/c2ccccc2)cc1", "values": [
      {"measurement": "cell number change", "value": 20, "unit": "%"},
      {"measurement": "AC50", "setting": "[1]", "value": "1160 nM [rising, full curve, poor fit]"}
    ]},
    {"compound": "COC(=O)c1ccc(Oc2nc(Nc3ccccc3)nc(N(C)C)n2)cc1", "values": [
      {"measurement": "cell number change", "value": -22.4, "unit": "%"},
      {"measurement": "AC50", "setting": "[1]", "value": "1460 nM [rising, partial curve]"}
    ]},
    {"compound": "O=C(CCC1CCCN(C(=O)c2cccnc2)C1)NCc1ccccc1F", "note": "(stereo unspecified)", "values": [
      {"measurement": "cell number change", "value": -22.1, "unit": "%"},
      {"measurement": "AC50", "setting": "[2]", "value": "130 nM [falling, full curve, poor fit]"},
      {"measurement": "AC50", "setting": "[1]", "value": "4110 nM [falling, partial curve]"}
    ]},
    {"compound": "O=C(CNc1ccc(F)cc1)N/N=C1\\CCCc2ccccc21", "values": [
      {"measurement": "AC50", "setting": "[2]", "value": "517 nM [rising, full curve]"},
      {"measurement": "AC50", "setting": "[1]", "value": "517 nM [rising, full curve]"}
    ]},
    {"compound": "C=CCS/C(N)=N\\N=C\\c1cc(Br)cc([N+](=O)[O-])c1O", "values": [
      {"measurement": "cell number change", "value": -3.72, "unit": "%"},
      {"measurement": "AC50", "setting": "[1]", "value": "4.61 nM [falling, full curve, poor fit]"}
    ]},
    {"compound": "COc1ccc(CC(=O)OCC(=O)Nc2ncc(Cl)c(C)c2Cl)cc1", "values": [
      {"measurement": "cell number change", "value": -13.8, "unit": "%"},
      {"measurement": "AC50", "setting": "[2]", "value": "7310 nM [falling, single point]"},
      {"measurement": "AC50", "setting": "[1]", "value": "3660 nM [rising, partial curve, poor fit]"}
    ]},
    {"compound": "Cc1ccc(S(=O)(=O)N(C)CC(=O)NCCc2c[nH]c3ccccc23)cc1", "values": [
      {"measurement": "cell number change", "value": 35.9, "unit": "%"}
    ]},
    {"compound": "COc1ccc(C(CNC(=O)c2oc3cc(Br)ccc3c2C)N2CCCCC2)cc1", "note": "(stereo unspecified)", "values": [
      {"measurement": "cell number change", "value": -2.12, "unit": "%"},
      {"measurement": "AC50", "setting": "[2]", "value": "1460 nM [rising, partial curve, poor fit]"},
      {"measurement": "AC50", "setting": "[1]", "value": "6510 nM [rising, partial curve, poor fit]"}
    ]},
    {"compound": "COc1ccc(-c2csc3ncnc(NCCN4CCOCC4)c23)cc1", "values": [
      {"measurement": "cell number change", "value": -15.4, "unit": "%"},
      {"measurement": "AC50", "setting": "[1]", "value": "7310 nM [falling, partial curve]"}
    ]},
    {"compound": "COc1ccc(/C=C2\\Sc3ccc(C(=O)N4CCN(Cc5ccccc5)CC4)cc3N(C)C2=O)cc1OC", "values": [
      {"measurement": "AC50", "setting": "[2]", "value": "1840 nM [falling, partial curve]"},
      {"measurement": "AC50", "setting": "[1]", "value": "5800 nM [falling, partial curve]"}
    ]},
    {"compound": "COc1ccc(NC(=O)c2sc(SC)nc2N)cc1", "values": [
      {"measurement": "cell number change", "value": -65.7, "unit": "%"},
      {"measurement": "AC50", "setting": "[2]", "value": "29100 nM [falling, single point]"},
      {"measurement": "AC50", "setting": "[1]", "value": "29100 nM [falling, single point]"}
    ]},
    {"compound": "CC1CCc2c(C(=O)Nc3cccc(-c4nn[nH]n4)c3)csc2C1", "note": "(stereo unspecified)", "values": [
      {"measurement": "cell number change", "value": 33.6, "unit": "%"},
      {"measurement": "AC50", "setting": "[2]", "value": "32600 nM [rising, partial curve, poor fit]"}
    ]},
    {"compound": "CCC1SC2=NCCN2C1(O)c1ccc(Cl)cc1", "note": "(stereo unspecified)", "values": [
      {"measurement": "cell number change", "value": 7.6, "unit": "%"},
      {"measurement": "AC50", "setting": "[1]", "value": "231 nM [falling, full curve]"}
    ]},
    {"compound": "O=C1c2ccccc2C(=O)N1CC1c2ccccc2CCN1S(=O)(=O)c1ccccc1", "note": "(stereo unspecified)", "values": [
      {"measurement": "cell number change", "value": -24.4, "unit": "%"}
    ]}
  ]
}
